This is an account of results in publication PMC5479843.

No constants are given. Whether binding was seen depends on the method and setting.

The target of this test is T1, MYOTIg1-2 (Ig1-2 domains of human myotilin, residues 250-444) (human), Q9UBF9.
T1 chain: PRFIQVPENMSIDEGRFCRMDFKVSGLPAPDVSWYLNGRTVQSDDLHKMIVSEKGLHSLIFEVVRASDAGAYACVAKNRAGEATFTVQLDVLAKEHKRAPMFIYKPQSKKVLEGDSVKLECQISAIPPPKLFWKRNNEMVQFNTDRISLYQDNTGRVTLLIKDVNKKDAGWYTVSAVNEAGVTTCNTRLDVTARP
Put plainly: SAXS; MYOTIg1-2 at 3.67, 7.00 and 14.12 mg/mL in 20 mM Na-HEPES, 150 mM NaCl, 5 % glycerol, 1 mM DTT, pH 7.4; curve extrapolated to zero concentration; molecular weight calculated from I0 and Porod volume; both purified. The note with it: remark: other sources report otherwise.

B1: MYOTIg1-2 (Ig1-2 domains of human myotilin, residues 250-444), Q9UBF9 250-444 (domain or fragment)
chain: PRFIQVPENMSIDEGRFCRMDFKVSGLPAPDVSWYLNGRTVQSDDLHKMIVSEKGLHSLIFEVVRASDAGAYACVAKNRAGEATFTVQLDVLAKEHKRAPMFIYKPQSKKVLEGDSVKLECQISAIPPPKLFWKRNNEMVQFNTDRISLYQDNTGRVTLLIKDVNKKDAGWYTVSAVNEAGVTTCNTRLDVTARP
Consider B1, for which the binding entry is “no binding (tested: 14.12 mg/mL)”.
